Results are given in words; binding and its absence hold for the method and conditions named. Some results given as binding are weak or reduced against the parent protein; the word gives no strength.

Protein sequences, listed by entry. Tags and fused reporters are not part of them. Lines headed by an entry give the natural chain unless they say otherwise; changes in a name come on top. Chains listed by the source or under a name are the forms on record and can include a tag or linker. Residues count along the entry.
DNAJA2ΔCD (O60884, residues 1-360): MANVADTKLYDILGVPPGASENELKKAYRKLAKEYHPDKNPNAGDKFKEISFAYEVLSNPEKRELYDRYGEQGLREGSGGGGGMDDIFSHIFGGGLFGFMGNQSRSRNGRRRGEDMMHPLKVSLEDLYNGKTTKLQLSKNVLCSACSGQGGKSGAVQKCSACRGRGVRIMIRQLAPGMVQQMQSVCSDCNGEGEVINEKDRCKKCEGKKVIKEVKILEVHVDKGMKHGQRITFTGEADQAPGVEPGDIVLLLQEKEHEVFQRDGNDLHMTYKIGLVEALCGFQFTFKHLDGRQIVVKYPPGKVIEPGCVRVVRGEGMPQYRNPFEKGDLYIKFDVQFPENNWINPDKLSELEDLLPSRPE
DNAJA2ΔZFLR (O60884, form named): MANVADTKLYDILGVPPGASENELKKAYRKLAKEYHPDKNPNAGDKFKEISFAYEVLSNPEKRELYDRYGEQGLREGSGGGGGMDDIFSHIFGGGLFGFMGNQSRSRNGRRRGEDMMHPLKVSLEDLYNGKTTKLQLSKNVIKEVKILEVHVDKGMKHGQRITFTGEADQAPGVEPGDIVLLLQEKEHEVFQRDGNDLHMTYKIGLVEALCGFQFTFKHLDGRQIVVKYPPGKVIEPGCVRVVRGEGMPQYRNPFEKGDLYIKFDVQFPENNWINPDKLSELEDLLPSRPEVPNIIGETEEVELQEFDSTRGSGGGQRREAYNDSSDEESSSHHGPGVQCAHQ
UniProt P11411: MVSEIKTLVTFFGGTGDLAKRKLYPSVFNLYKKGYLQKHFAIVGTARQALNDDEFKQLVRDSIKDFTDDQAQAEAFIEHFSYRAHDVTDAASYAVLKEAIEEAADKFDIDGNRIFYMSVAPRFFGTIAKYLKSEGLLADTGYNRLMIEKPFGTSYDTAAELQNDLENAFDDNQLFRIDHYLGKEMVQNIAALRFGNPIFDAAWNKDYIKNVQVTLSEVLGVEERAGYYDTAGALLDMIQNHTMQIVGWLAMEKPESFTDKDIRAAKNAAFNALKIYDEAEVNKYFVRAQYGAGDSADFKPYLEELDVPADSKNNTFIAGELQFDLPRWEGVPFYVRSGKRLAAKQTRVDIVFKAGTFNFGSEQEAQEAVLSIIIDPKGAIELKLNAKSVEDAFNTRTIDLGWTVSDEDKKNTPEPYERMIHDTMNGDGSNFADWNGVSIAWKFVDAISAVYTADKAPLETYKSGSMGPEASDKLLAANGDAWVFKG
UniProt P25685: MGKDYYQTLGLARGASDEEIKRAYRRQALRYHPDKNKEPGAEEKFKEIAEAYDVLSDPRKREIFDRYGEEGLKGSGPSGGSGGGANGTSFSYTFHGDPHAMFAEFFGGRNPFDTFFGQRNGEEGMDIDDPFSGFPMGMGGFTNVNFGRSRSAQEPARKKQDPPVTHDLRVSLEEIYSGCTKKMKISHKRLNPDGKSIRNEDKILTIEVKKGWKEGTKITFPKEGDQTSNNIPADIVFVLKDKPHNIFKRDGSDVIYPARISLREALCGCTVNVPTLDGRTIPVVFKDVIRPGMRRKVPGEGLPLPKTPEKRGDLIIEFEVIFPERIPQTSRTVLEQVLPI

Drawing on article PMC10480186, this text covers binding for three substances.

The target of assay [1] is DNAJA2ΔCD (human) (UniProt O60884). Nature of the assay: negative-stain electron microscopy; samples on carbon-coated grids, 2% uranyl acetate; 15 µM protein; tubular oligomers of dimers; both purified.
The target of assay [2] is DNAJA2ΔZFLR (human) (UniProt O60884). The assay is described as above.
Assay [3] concerns the target Glucose-6-phosphate dehydrogenase (G6PDH) from Leuconostoc mesenteroides, aggregated (Leuconostoc mesenteroides) (UniProt P11411). Nature of the assay: co-sedimentation; 2 µM Hsc70, 1 µM J-domain protein (DNAJB1, DNAJA2ΔCD or DNAJA2wt), 0.4 µM Apg2, 0.4 µM aggregated or native G6PDH; pellets on SDS-PAGE, band intensities; amounts in pellets with native G6PDH subtracted; both purified.

With “DNAJA2ΔCD (from UniProt O60884 1-360) (domain or fragment)”, the binding result in assay [1] is “binds weakly”. Take DNAJA2ΔZFLR (from UniProt O60884 1-412): the binding result in assay [2] was “binds weakly”. For the substance DNAJB1 (from UniProt P25685 1-340), in assay [3], the binding result was “binds”.
